# Reference: patent publication US20230287489
# Sequences of proteins named here, by UniProt entry; tags and fusion partners are left off. A change or cut given only in a name is not applied to a line headed by its entry.
# UniProt P06855: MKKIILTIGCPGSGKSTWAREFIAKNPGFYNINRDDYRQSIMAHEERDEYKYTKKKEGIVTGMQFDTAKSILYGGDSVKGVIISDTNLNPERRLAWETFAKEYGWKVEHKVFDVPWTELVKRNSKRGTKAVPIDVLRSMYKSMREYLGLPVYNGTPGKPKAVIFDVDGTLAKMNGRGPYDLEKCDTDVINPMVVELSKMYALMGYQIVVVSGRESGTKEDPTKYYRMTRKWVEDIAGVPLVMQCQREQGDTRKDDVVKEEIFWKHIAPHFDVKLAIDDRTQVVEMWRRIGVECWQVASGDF
# Legend:
# Experiment in all cases: enzyme reaction in vitro
# [1] = biological target: T1, Human RNase 4 (hRNase 4) (Homo sapiens) (UniProt P34096); conditions: purified recombinant protein
# T1 sequence: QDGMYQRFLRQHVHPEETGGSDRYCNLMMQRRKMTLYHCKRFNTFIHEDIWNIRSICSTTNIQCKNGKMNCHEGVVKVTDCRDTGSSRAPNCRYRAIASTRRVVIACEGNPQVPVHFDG
# [2] = biological target: T4 polynucleotide kinase (T4 PNK) (Enterobacteria phage T4) (UniProt P06855); conditions: 3' end 2',3'-cyclic phosphate or 3'-phosphate; cyclic phosphate/3'-phosphate ends converted to 2',3'-hydroxyl; NEBuffer 1, 37 C 30 min with hRNase 4; purified recombinant protein
# [3] = biological target: T2, RNase T1 (Aspergillus oryzae) (UniProt P00651); conditions: purified recombinant protein
# T2 sequence (looked up, limits assumed): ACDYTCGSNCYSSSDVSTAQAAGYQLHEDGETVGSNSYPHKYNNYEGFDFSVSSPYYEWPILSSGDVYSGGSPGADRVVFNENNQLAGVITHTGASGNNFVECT
# [4] = biological target: T3, RNase MC1 (Momordica charantia) (UniProt P23540); conditions: hybrid protected; 3' overhang products; NEB r1.1 with T4 PNK; purified recombinant protein; DNA:RNA hybrid
# T3 sequence (looked up, limits assumed): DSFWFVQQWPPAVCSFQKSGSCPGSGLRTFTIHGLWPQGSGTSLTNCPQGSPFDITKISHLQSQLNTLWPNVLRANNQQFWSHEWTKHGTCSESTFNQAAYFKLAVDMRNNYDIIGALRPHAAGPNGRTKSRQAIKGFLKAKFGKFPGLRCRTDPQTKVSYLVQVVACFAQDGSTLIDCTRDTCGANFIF
# [5] = biological target: T4, RNase A (UniProt P61823); conditions: variable 3'-recessed and overhang products; 300 mM NaCl; purified native protein; DNA:RNA hybrid
# T4 sequence (looked up, limits assumed): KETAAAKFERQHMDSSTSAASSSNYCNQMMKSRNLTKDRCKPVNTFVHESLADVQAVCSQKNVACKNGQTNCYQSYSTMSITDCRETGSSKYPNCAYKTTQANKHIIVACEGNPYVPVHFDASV
# [6] = biological target: T5, RNase If (UniProt P21338); conditions: variable 3'-recessed and overhang products; NEB buffer 3; purified recombinant protein; DNA:RNA hybrid
# T5 sequence (looked up, limits assumed): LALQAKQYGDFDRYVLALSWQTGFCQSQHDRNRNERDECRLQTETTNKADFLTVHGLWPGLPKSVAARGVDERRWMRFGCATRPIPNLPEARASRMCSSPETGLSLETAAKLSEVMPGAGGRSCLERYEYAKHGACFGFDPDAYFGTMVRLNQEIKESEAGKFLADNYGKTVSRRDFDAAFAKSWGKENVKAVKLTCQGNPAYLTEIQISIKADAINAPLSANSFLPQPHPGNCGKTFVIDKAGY
sequence,measurement,setting,value
AAAAAACGAAAA [CG oligo],activity on this sequence,[1]; not cleaved,not active
AAAAAAAAAAAAAU [5' cleavage product of SEQ 5],activity on this sequence,[2],active
AAAAAAAACAAAAAA [AC/CA oligo],activity on this sequence,[1]; not cleaved,not active
AAAAAAAAAAAAAUGAAAAAAAAAA [UG oligo],activity on this sequence,"[1]; cleaved between U and G, NEBuffer 1, 37 C",active
AAAAAAAAGCAAAAA [GC/CA oligo],activity on this sequence,"[1]; CA-containing, not cleaved",not active
GGGGCUUGCUUGUUCUUUUUGCAGAAGCUCAGAAUAAACGCUCAACUUUGGCACCAUGGGAGUGCACGAGUGUCCCGCGUGGUUGUGGUUGCUGCUGUCGCUCUUGAGCCUCCCACUGGGACUGCCUGUGCUGGGGGCACCACCCAGAUUGAUCUGCGACUCACGGGUACUUGAGAGGUACCUUCUUGAAGCCAAAGAAGCCGAAAACAUCACAACCGGAUGCGCCGAGCACUGCUCCCUCAAUGAGAACAUUACUGUACCGGAUACAAAGGUCAAUUUCUAUGCAUGGAAGAGAAUGGAAGUAGGACAGCAGGCCGUCGAAGUGUGGCAGGGGCUCGCGCUUUUGUCGGAGGCGGUGUUGCGGGGUCAGGCCCUCCUCGUCAACUCAUCACAGCCGUGGGAGCCCCUCCAACUUCAUGUCGAUAAAGCGGUGUCGGGGCUCCGCAGCUUGACGACGUUGCUUCGGGCUCUGGGCGCACAAAAGGAGGCUAUUUCGCCGCCUGACGCGGCCUCCGCGGCACCCCUCCGAACGAUCACCGCGGACACGUUUAGGAAGCUUUUUAGAGUGUACAGCAAUUUCCUCCGCGGAAAGCUGAAAUUGUAUACUGGUGAAGCGUGUAGGACAGGGGAUCGCUAGGACUGACUAGGAUCUGGUUACCACUAAACCAGCCUCAAGAACACCCGAAUGGAGUCUCUAAGCUACAUAAUACCAACUUACACUUUACAAAAUGUUGUCCCCCAAAAUGUAGCCAUUCGUAUCUGCUCCUAAUAAAAAGAAAGUUUCUUCACAUUCUAGCUAGC [Epo mRNA (U)],activity on this sequence,[1]; 73-87% coverage across Epo mRNAs,active
same,activity on this sequence,[3]; 50-61% coverage across Epo mRNAs,active
AAAAAAAAUCAAAAA [UC oligo],activity on this sequence,[1]; not cleaved at any tested concentration,not active
AAAAAAAAAAAAAUAAAAAAAAAAA [UA oligo],activity on this sequence,"[1]; cleaved, NEBuffer 1 (10 mM MgCl2), 37 C 1 h, pooled oligos, LC-MS/MS",active
AAAAAAAAAAAAAUUAAAAAAAAAA [UU/UA oligo],activity on this sequence,"[1]; cleaved, UU not conclusive because UA also present",active
GGGACTCTAACTATGTCAATCGCCGTGATGTAATTATCGC / ATTGACATAGTTAGAGTCCC [40mer RNA with 20mer DNA probe],activity on this sequence,"[1]; hybrid protected, cleavage at first site after the duplex, NEB r1.1 with T4 PNK, DNA:RNA hybrid",active
same,activity on this sequence,[4],active
same,activity on this sequence,[5],active
same,activity on this sequence,[6],active
same,activity on this sequence,"[3]; hybrid protected, 3' overhang products, NEB r1.1 with T4 PNK, DNA:RNA hybrid",active
AAAAAAAAAAACCAAAAAAAAA [CC oligo],activity on this sequence,[1]; not cleaved,not active
GGGGCUUGCUUGUUCUUUUUGCAGAAGCUCAGAAUAAACGCUCAACUUUGGCACCAUGGGAGUGCACGAGUGUCCCGCGUGGUUGUGGUUGCUGCUGUCGCUCUUGAGCCUCCCACUGGGACUGCCUGUGCUGGGGGCACCACCCAGAUUGAUCUGCGACUCACGGGUACUUGAGAGGUACCUUCUUGAAGCCAAAGAAGCCGAAAACAUCACAACCGGAUGCGCCGAGCACUGCUCCCUCAAUGAGAACAUUACUGUACCGGAUACAAAGGUCAAUUUCUAUGCAUGGAAGAGAAUGGAAGUAGGACAGCAGGCCGUCGAAGUGUGGCAGGGGCUCGCGCUUUUGUCGGAGGCGGUGUUGCGGGGUCAGGCCCUCCUCGUCAACUCAUCACAGCCGUGGGAGCCCCUCCAACUUCAUGUCGAUAAAGCGGUGUCGGGGCUCCGCAGCUUGACGACGUUGCUUCGGGCUCUGGGCGCACAAAAGGAGGCUAUUUCGCCGCCUGACGCGGCCUCCGCGGCACCCCUCCGAACGAUCACCGCGGACACGUUUAGGAAGCUUUUUAGAGUGUACAGCAAUUUCCUCCGCGGAAAGCUGAAAUUGUAUACUGGUGAAGCGUGUAGGACAGGGGAUCGCUAGGACUGACUAGGAUCUGGUUACCACUAAACCAGCCUCAAGAACACCCGAAUGGAGUCUCUAAGCUACAUAAUACCAACUUACACUUUACAAAAUGUUGUCCCCCAAAAUGUAGCCAUUCGUAUCUGCUCCUAAUAAAAAGAAAGUUUCUUCACAUUCUAGCUAGC [Epo mRNA (m1Y)],activity on this sequence,"[1]; all U replaced by 1-methylpseudouridine, 73-87% coverage across Epo mRNAs",active
same,activity on this sequence,"[3]; all U replaced by 1-methylpseudouridine, 50-61% coverage across Epo mRNAs",active
AAAAAAAAAAAGUAAAAAAAAA [GU/UA oligo],activity on this sequence,[1]; cleaved at UA,active
AAAAAACUAAAA [CU/UA oligo],activity on this sequence,"[1]; cleaved, CU not conclusive because UA also present",active
GGGGCUUGCUUGUUCUUUUUGCAGAAGCUCAGAAUAAACGCUCAACUUUGGCACCAUGGGAGUGCACGAGUGUCCCGCGUGGUUGUGGUUGCUGCUGUCGCUCUUGAGCCUCCCACUGGGACUGCCUGUGCUGGGGGCACCACCCAGAUUGAUCUGCGACUCACGGGUACUUGAGAGGUACCUUCUUGAAGCCAAAGAAGCCGAAAACAUCACAACCGGAUGCGCCGAGCACUGCUCCCUCAAUGAGAACAUUACUGUACCGGAUACAAAGGUCAAUUUCUAUGCAUGGAAGAGAAUGGAAGUAGGACAGCAGGCCGUCGAAGUGUGGCAGGGGCUCGCGCUUUUGUCGGAGGCGGUGUUGCGGGGUCAGGCCCUCCUCGUCAACUCAUCACAGCCGUGGGAGCCCCUCCAACUUCAUGUCGAUAAAGCGGUGUCGGGGCUCCGCAGCUUGACGACGUUGCUUCGGGCUCUGGGCGCACAAAAGGAGGCUAUUUCGCCGCCUGACGCGGCCUCCGCGGCACCCCUCCGAACGAUCACCGCGGACACGUUUAGGAAGCUUUUUAGAGUGUACAGCAAUUUCCUCCGCGGAAAGCUGAAAUUGUAUACUGGUGAAGCGUGUAGGACAGGGGAUCGCUAGGACUGACUAGGAUCUGGUUACCACUAAACCAGCCUCAAGAACACCCGAAUGGAGUCUCUAAGCUACAUAAUACCAACUUACACUUUACAAAAUGUUGUCCCCCAAAAUGUAGCCAUUCGUAUCUGCUCCUAAUAAAAAGAAAGUUUCUUCACAUUCUAGCUAGC [Epo mRNA (mo5U)],activity on this sequence,"[1]; all U replaced by 5-methoxyuridine, 73-87% coverage across Epo mRNAs",active
same,activity on this sequence,"[3]; all U replaced by 5-methoxyuridine, 50-61% coverage across Epo mRNAs",active
AGGGCTTGCTTGTTCTTTTTGCAGAAGCTCAGAAT / GAGCTTCTGCAAAAAGAACAAGCAAGCCCT [EPO mRNA 5' end with 30mer DNA probe],activity on this sequence,"[1]; 5' m7GpppAm cap, 35mer isolated, cleavage prevented within the hybrid, cuts at first UR site after it, 1 M urea, label: 5' biotin on probe, DNA:RNA hybrid",active
AAGAGAGAUAGAGAA [single-site 15mer],activity on this sequence,"[1]; robust cleavage, inhibited by human placental RNase inhibitor",active

# For part of these data: No signal at the amounts used counts as a negative. For part of these data: Tags and fusion partners may be left off the protein sequences shown. For part of these data: For at least one entry, the source does not settle the construct or the ends of the probe.
